Measured values as given in article PMC9765416.
No constants are given. Whether binding was seen depends on the method and setting. Binding calls can cover weak binding; strength is not graded here.

Molecular target: T1, PPE68 of M. tuberculosis (endogenous in strain mc^26020) (M. tuberculosis (endogenous in M. tuberculosis mc^26020)) (UniProt P9WHW9)
T1 sequence: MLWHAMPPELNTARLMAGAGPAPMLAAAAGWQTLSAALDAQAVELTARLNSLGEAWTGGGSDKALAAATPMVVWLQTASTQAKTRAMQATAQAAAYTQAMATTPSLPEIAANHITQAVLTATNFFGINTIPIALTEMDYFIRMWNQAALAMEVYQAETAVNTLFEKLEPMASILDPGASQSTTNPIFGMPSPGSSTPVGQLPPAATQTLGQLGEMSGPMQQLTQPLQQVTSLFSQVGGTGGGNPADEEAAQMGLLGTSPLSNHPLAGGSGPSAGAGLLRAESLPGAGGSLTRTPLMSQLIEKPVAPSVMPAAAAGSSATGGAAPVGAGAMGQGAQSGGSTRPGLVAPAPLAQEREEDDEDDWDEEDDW
Assay: native gel or EMSA

For EspG1 chaperone of M. tuberculosis, the binding was “binds”.
